From the supplement of paper PMC12889115
This is one part of the list. Values are raw readings; no control value is given beside them.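 Primary screen: polymyxin B was added at a level permeabilizing Salmonella outer membranes while sparing inner membranes. DMSO wells, both with and without polymyxin B, established maximum growth. Plate-to-plate variation meant each plate was ranked on its own, and the lowest-OD600 compounds were selected as hits.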

System: Salmonella enterica serovar Typhimurium SL1344
Assay: bacterial growth OD600 after 18 h with compound and polymyxin B; higher = more bacterial growth (less inhibition)
Settings: 50 µM, Mueller-Hinton broth

SMILES | bacterial growth OD600 (polymyxin B 1 µg/mL) | bacterial growth OD600 (polymyxin B 0.75 µg/mL)
COc1ccc(-c2noc(CN(Cc3ccccc3)CC3CC3)n2)c(OC)c1OC | 0.962 | –
COc1ccc(CN2C(=O)O[C@@H]3CN(C(C)C)C[C@@H]32)cc1OC | 1.17 | –
O=C(Nc1ccc(Oc2cccnc2)cc1)C1CCCCN1C1CCCC1 (configuration not stated) | 0.851 | –
Cc1csc(C(C)N(C)Cc2nc(-c3ccc4ccccc4c3)oc2C)n1 (configuration not stated) | – | 0.003
COCCO[C@H]1[C@H](NC(=O)C(C)C)c2ccccc2C12CCN(C(=O)/C=C/c1ccccc1)CC2 | – | 0.797
CSCC(=O)NC1CC(C)(C)Cc2c1cnn2-c1ccccc1C (configuration not stated) | – | 0.257
Cc1cccc(C(=O)N(C)CC2CCCN(CCc3ccccc3F)C2)c1 (configuration not stated) | 0.954 | –
COC(=O)c1c(OCCc2ccccc2F)cc(=O)n2c1CCN(C(=O)c1ccccc1Cl)CC2 | – | 0.81
COc1ccc(CCNC(=O)c2oc3ccc(C)cc3c2C)cc1OC | – | 0.001
CCOC(=O)C1(CCOc2ccccc2)CCN(Cc2cccc3c2OCO3)CC1 | 0.66 | –
OC(Cc1ccccc1)c1ccc2c(c1)CN(Cc1ccoc1)CCO2 (configuration not stated) | – | 0.756
COc1ccc(OC2CCN(C3CCCC3)CC2)c(C(=O)N(C)C(C)C)c1 | 0.949 | –
COCc1ccc(C(=O)N2CCCC(CCC(=O)NCc3ccccc3Cl)C2)o1 (configuration not stated) | 0.847 | –
Cc1nnc(-c2cccc(NC(=O)C3CCCCN3C(=O)CC(C)C)c2)s1 (configuration not stated) | 0.932 | –
COc1ccc(CCC2CCCN(C(=O)CN3CCCCC3=O)C2)cc1 (configuration not stated) | – | 0.817
CN(Cc1ccc(C(F)(F)F)cc1)C1CCN(c2cccc(NC(=O)c3ccncc3)c2)CC1 | – | 0.605

SMILES | bacterial growth OD600 (polymyxin B 1 µg/mL) | bacterial growth OD600 (polymyxin B 0.75 µg/mL)
COc1ccc(CCc2nnc(CCC(=O)N3CCN(C4CCCC4)CC3)o2)cc1 | 0.944 | –
CN(Cc1ccc(F)cc1)c1ccc(OCC(=O)N(Cc2cccnc2)C[C@@H]2CCC(=O)N2)nn1 | – | 0.79
COc1cc(CN2CCCC(Nc3ccc4c(c3)OCCO4)C2)c(Cl)cc1O (configuration not stated) | – | 0.743
CN1CCN(C(=O)c2coc(COc3ccc(F)cc3)n2)CC1 | 1.01 | –
O=C(c1ccccc1C(F)(F)F)N1CCCC(Nc2ccccc2)C1 (configuration not stated) | 0.922 | –
Cc1ccc(OC2CCN(Cc3nc(Cc4cccc(F)c4)no3)CC2)cc1 | 0.509 | –
Cn1cc(CNC2CCCc3nc(-c4cccnc4)ncc32)cn1 (configuration not stated) | 0.927 | –
CCOC(=O)C1(CCOc2ccccc2)CCN(C(=O)CC2=CCCCC2)CC1 | 0.129 | –
COc1ccc(CC2(CO)CCN(Cc3ccccc3OC(F)F)CC2)cc1 | 0.799 | –
O=C(Cn1cnc2ccccc21)N1CCCC(N2CCN(c3ccccc3F)CC2)C1 (configuration not stated) | 1.05 | –
CN(C(=O)c1cccc(Cl)c1)C1CCCN(C2Cc3ccccc3C2)C1 (configuration not stated) | 1.17 | –
Cc1nnc(SCCNC(=O)c2coc(Cn3cnc4ccccc43)n2)s1 | 0.684 | –
O=C(Nc1ccccc1Oc1cccnc1)C1CCCN(C(=O)CCc2ccncc2)C1 (configuration not stated) | – | 0.805
CCc1nc2cc(C(=O)N(C)CCc3ccccn3)cc(NC(=O)c3ccccc3OC)c2n1C | – | 0.811
C=C(C)CN(C)Cc1cnc(S(=O)(=O)CC)n1CCc1ccccc1 | 0.536 | –
CCn1ccnc1CNc1nc2nonc2nc1N1CCCC1 | – | 0.954
